Data from publication PMC7593971.
Read-outs that look alike come from different tables or passages of the source. These are yes or no findings as the source states them, for the method shown. Binding seen in cells or lysates may run through a third protein. Binding can be weak; no strength is given.

Columns and labels:
Assay in all cases: co-IP; GFP trap slurry (Chromotek) incubated 2 h at 4°C with the supernatant of S. pneumoniae cells lysed in buffer B (0.1 M Tris-HCl pH 7.5, 100 mM NaCl, 1 mM EDTA, 1 mM DTT, 5% digitonin); washed three times with buffer C (150 mM NaCl, 0.05% digitonin); eluate immunoblotted with anti-Flag, anti-PBP1a or anti-PBP1b antibody
[1] = biological target: GFP-CozEb (CozEb fused to green fluorescent protein) (Streptococcus pneumoniae) (UniProt Q8DP46)
[2] = biological target: GFP-CozEa (GFP-labeled CozEa) (Streptococcus pneumoniae) (UniProt Q8DQ98)
[3] = biological target: GFP-CozEa (GFP-labeled CozEa) (Streptococcus pneumoniae) (UniProt Q8DQ98); remark: listed apart in the source
[4] = biological target: GFP-CozEb (CozEb fused to green fluorescent protein) (Streptococcus pneumoniae) (UniProt Q8DP46); remark: listed apart in the source

| binding [1] | binding [2] | binding [3] | binding [4] | Molecule |
| --- | --- | --- | --- | --- |
| binds |  |  |  | Flag-CozEa (CozEa fused to a Flag-tag) (from UniProt Q8DQ98) |
| binds weakly | binds weakly |  |  | PBP1b (penicillin-binding protein 1b) (from UniProt Q7CRA4 1-821) |
|  |  | binds | binds | PBP1a (penicillin-binding protein 1a) (protein, UniProt Q8DR59 1-719) MNKPTILRLIKYLSISFLSLVIAAIVLGGGVFFYYVSKAPSLSESKLVATTSSKIYDNKNQLIADLGSERRVNAQANDIPTDLVKAIVSIEDHRFFDHRGIDTIRILGAFLRNLQSNSLQGGSALTQQLIKLTYFSTSTSDQTISRKAQEAWLAIQLEQKATKQEILTYYINKVYMSNGNYGMQTAAQNYYGKDLNNLSLPQLALLAGMPQAPNQYDPYSHPEAAQDRRNLVLSEMKNQGYISAEQYEKAVNTPITDGLQSLKSASNYPAYMDNYLKEVINQVEEETGYNLLTTGMDVYTNVDQEAQKHLWDIYNTDEYVAYPDDELQVASTIVDVSNGKVIAQLGARHQSSNVSFGINQAVETNRDWGSTMKPITDYAPALEYGVYESTATIVHDEPYNYPGTNTPVYNWDRGYFGNITLQYALQQSRNVPAVETLNKVGLNRAKTFLNGLGIDYPSIHYSNAISSNTTESDKKYGASSEKMAAAYAAFANGGTYYKPMYIHKVVFSDGSEKEFSNVGTRAMKETTAYMMTDMMKTVLSYGTGRNAYLAWLPQAGKTGTSNYTDEEIENHIKTSQFVAPDELFAGYTRKYSMAVWTGYSNRLTPLVGNGLTVAAKVYRSMMTYLSEGSNPEDWNIPEGLYRNGEFVFKNGARSTWSSPAPQQPPSTESSSSSSDSSTSQSSSTTPSTNNSTTTNPNNNTQQSNTTPDQQNQNPQPAQP |
